Test results: patent EP0523085B1, “PEROXY ACID BLEACH PRECURSORS AND DETERGENT COMPOSITIONS CONTAINING THEM” (priority 1990, dated 1991)

Columns and labels:
[1] = model bleaching test at 10°C, stain removal by light reflectance; details: 6 mmoles sodium perborate tetrahydrate and 3.5 mmoles precursor in 500ml distilled water, 3, 6 and 9 minutes
[2] = fabric colour damage model test under stressed dissolution conditions; details: 0.01g powder sprinkled on swatch in 100mls 3% sodium perborate solution, 20°C; for pH of the solutions after 24 hrs: starting pH 9.3, average

Row | Compound | stain removal relative to the corresponding liquor containing TAED [1] | visual examination of swatches after 24 hrs (colour change) [2] | pH of the solutions after 24 hrs [2]
1 | CC(=O)N(CCC[N+](C)(C)C)C(C)=O.[Br-] [DTAPB, N,N-diacetyl trimethylammonio propylamine bromide] | superior |  | 
2 | CC(=O)N(CCS(=O)(=O)[O-])C(C)=O.[K+] [KDAES, potassium N,N-diacetylaminoethane sulphonate] | superior | little fading from the original blue colour and little unevenness in hue variation | 8.2
3 | sodium perborate [reference compound] |  | changed colour uniformly from deep blue to a sage green | approximately 9.3
